Data as given in PubChem BioAssay AID1259424 (University of Nebraska Medical Center, 2018)

Purpose: 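Find knockdowns that reproduce the expression shifts seen after KSR1 loss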 (primary screen)
System: human HCT116 colon cancer cells
Knock-down reagent: siRNA pool against human genes, 50 nM
Measurement: 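Log2 levels of six mRNAs (branched-DNA multiplex), adjusted by two reference genes and the non-targeting median, then scored against the average KSR1 knockdown pattern as Pearson r and euclidean distance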
Direction: mean correlation with KSR1 profile and KSR1 correlation: higher = expression change more like KSR1 knockdown; mean distance from KSR1 profile: higher = expression change less like KSR1 knockdown
Here is one part, drawn at random, of about 14,000 deposited reagents. 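Higher correlation or smaller distance means closer resemblance to KSR1 loss; control wells, including KSR1 knockdowns, recur on many plates.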 Not stated in the record: the time to read-out.

| gene symbol | PubChem SID | mean correlation with KSR1 profile | mean distance from KSR1 profile | KSR1 correlation, replicate 1 | KSR1 correlation, replicate 2 | KSR1 correlation, replicate 3 |
| --- | --- | --- | --- | --- | --- | --- |
| ZW10 | SID363995683 | 0.0796 | 2.49 | 0.00867 | 0.364 | 0.128 |
| CSPG4 | SID363993110 | 0.429 | 1.73 | 0.407 | 0.415 | 0.581 |
| PDLIM4 | SID363994762 | 0.678 | 1.02 | 0.808 | 0.464 | 0.648 |
| SHISAL1 | SID364005559 | -0.79 | 4.17 | -0.784 | -0.0899 | -0.948 |
| NIPA2 | SID364003496 | 0.449 | 2.29 | 0.372 | 0.343 | 0.508 |
| CCL22 | SID363994141 | -0.42 | 2.68 | -0.223 | -0.601 | -0.516 |
| TMEM257 (retired record) | SID363995668 | -0.401 | 4.28 | -0.1 | -0.626 | -0.367 |
| PLPP2 | SID363994781 | 0.224 | 2.83 | 0.0236 | 0.391 | 0.166 |
| SYT3 | SID364003884 | 0.576 | 1.51 | 0.439 | 0.527 | 0.681 |
| DCAF12 | SID363999467 | -0.229 | 1.88 | -0.0343 | -0.366 | -0.259 |
| SIAH2 | SID363996004 | 0.521 | 0.915 | 0.199 | 0.419 | 0.551 |
| EMP1 | SID363992687 | 0.105 | 2.15 | -0.00477 | -0.2 | 0.169 |
| PANK2 | SID364003189 | 0.365 | 2.34 | 0.249 | 0.388 | 0.275 |
| SMPDL3A | SID363997494 | 0.284 | 1.51 | 0.26 | 0.258 | 0.442 |
| CCNP | SID364003131 | -0.59 | 2.46 | -0.61 | -0.762 | -0.749 |
| LMOD3 | SID364004982 | -0.37 | 2.81 | -0.349 | -0.199 | -0.249 |
| TSPEAR | SID364004632 | -0.412 | 6.93 | -0.22 | -0.0263 | -0.084 |
| CIAPIN1 | SID364001602 | -0.251 | 2.99 | -0.533 | 0.0962 | -0.11 |

Targets above whose target name begins with P or p:
| gene symbol | PubChem SID | mean correlation with KSR1 profile | mean distance from KSR1 profile | KSR1 correlation, replicate 1 | KSR1 correlation, replicate 2 | KSR1 correlation, replicate 3 |
| --- | --- | --- | --- | --- | --- | --- |
| PDLIM4 | SID363994762 | 0.678 | 1.02 | 0.808 | 0.464 | 0.648 |
| PLPP2 | SID363994781 | 0.224 | 2.83 | 0.0236 | 0.391 | 0.166 |
| PANK2 | SID364003189 | 0.365 | 2.34 | 0.249 | 0.388 | 0.275 |

Next entries follow.
| gene symbol | PubChem SID | mean correlation with KSR1 profile | mean distance from KSR1 profile | KSR1 correlation, replicate 1 | KSR1 correlation, replicate 2 | KSR1 correlation, replicate 3 |
| --- | --- | --- | --- | --- | --- | --- |
| TPM4 | SID363994409 | 0.0738 | 1.96 | 0.463 | -0.349 | 0.0685 |
| SMARCE1 | SID363994224 | -0.311 | 4.4 | -0.00957 | 0.129 | -0.384 |
| RSRP1 | SID364001605 | -0.0847 | 3.52 | -0.00991 | -0.164 | -0.142 |
| CD300LB | SID364004854 | -0.0616 | 2.6 | 0.0888 | -0.356 | -0.148 |
| GDI2 | SID363992752 | -0.468 | 1.92 | -0.439 | -0.402 | -0.456 |
| CDC42SE2 | SID364001585 | 0.342 | 2.07 | 0.503 | 0.4 | 0.05 |
| CRHR2 | SID363993096 | 0.119 | 3.85 | 0.0734 | 0.24 | 0.0615 |
| TSSK2 | SID364004430 | -0.528 | 3.32 | -0.123 | -0.689 | -0.578 |
| POMGNT1 | SID364000486 | 0.0273 | 1.72 | 0.216 | -0.222 | -0.417 |
| RBM17 | SID364004266 | -0.11 | 2.92 | -0.0724 | 0.0219 | -0.365 |
| SLC11A1 | SID363991897 | 0.0592 | 1.07 | 0.249 | 0.0949 | -0.33 |
| TGFBR3 | SID363994364 | 0.0594 | 2.65 | -0.364 | -0.823 | 0.211 |
| CSAG1 | SID364004776 | -0.564 | 3.69 | -0.58 | -0.501 | -0.615 |
| GGH | SID363994937 | 0.499 | 3.4 | 0.541 | 0.458 | 0.448 |
| DNTTIP2 | SID363998969 | 0.647 | 1.59 | 0.608 | 0.544 | 0.326 |
| CLIC4 | SID363998534 | -0.387 | 3.2 | -0.259 | -0.488 | -0.338 |
